In article PMC11852716, “c-di-GMP phosphodiesterase ProE interacts with quorum sensing protein PqsE to promote pyocyanin production in Pseudomonas aeruginosa” (mSphere, 2025):
These are yes or no findings as the source states them, for the method shown. Binding calls can cover weak binding; strength is not graded here.

By UniProt entry, the sequences of proteins in these tests, tags left out. Where a name states a change or a piece, a line headed by the entry shows the natural chain unless it says otherwise.
UniProt Q9HTQ9: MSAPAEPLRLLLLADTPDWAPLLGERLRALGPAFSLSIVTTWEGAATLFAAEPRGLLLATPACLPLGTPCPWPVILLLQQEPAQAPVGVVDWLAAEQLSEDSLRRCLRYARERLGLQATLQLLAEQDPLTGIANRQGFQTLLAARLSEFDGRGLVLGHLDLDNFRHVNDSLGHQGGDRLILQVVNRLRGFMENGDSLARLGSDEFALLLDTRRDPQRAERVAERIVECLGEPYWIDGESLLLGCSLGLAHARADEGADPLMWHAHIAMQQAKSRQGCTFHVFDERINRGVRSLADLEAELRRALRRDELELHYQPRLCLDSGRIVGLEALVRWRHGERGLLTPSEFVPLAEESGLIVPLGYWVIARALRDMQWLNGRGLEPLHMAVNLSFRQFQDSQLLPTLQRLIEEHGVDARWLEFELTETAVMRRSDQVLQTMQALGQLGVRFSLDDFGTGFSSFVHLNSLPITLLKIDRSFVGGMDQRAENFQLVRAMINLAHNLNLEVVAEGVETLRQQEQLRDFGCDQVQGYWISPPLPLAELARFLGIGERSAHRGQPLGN
UniProt P20581: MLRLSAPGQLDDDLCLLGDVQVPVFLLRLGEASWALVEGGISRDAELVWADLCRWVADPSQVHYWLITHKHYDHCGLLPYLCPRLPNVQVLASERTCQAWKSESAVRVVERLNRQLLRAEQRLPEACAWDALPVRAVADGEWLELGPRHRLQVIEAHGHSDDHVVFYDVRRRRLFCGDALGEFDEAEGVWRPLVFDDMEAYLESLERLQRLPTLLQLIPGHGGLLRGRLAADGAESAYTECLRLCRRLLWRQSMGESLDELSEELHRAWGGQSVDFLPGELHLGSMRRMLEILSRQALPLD
UniProt P54292: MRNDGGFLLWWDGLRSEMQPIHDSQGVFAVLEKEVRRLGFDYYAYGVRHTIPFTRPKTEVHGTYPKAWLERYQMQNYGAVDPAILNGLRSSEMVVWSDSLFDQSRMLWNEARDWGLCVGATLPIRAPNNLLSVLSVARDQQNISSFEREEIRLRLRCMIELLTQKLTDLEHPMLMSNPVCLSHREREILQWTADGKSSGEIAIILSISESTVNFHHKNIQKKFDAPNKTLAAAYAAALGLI

Target: ProE, bacterial two-hybrid fusion (Pseudomonas aeruginosa) (UniProt Q9HTQ9)
Assay: two-hybrid; BacterioMatch II bacterial two-hybrid in E. coli XL1-Blue MRF' Kan; growth on M9+ His-deficient plate with 2.5 mM 3-AT, 37°C overnight

Substance: PqsE, bacterial two-hybrid fusion (from UniProt P20581 1-301)
- binding: binds

Substance: RhlR, bacterial two-hybrid fusion (from UniProt P54292 1-241)
- binding: no binding
